Measurements: ChEMBL document CHEMBL5674883, “The Heterochromatin Landscape in Migrating Cells and the Importance of H3K27me3 for Associated Transcriptome Alterations” (Cells, 2018)
This continues a long series; more values of the same kind are listed elsewhere.

By UniProt entry, the sequences of proteins in these tests, tags left out.
UniProt Q61188, whole entry: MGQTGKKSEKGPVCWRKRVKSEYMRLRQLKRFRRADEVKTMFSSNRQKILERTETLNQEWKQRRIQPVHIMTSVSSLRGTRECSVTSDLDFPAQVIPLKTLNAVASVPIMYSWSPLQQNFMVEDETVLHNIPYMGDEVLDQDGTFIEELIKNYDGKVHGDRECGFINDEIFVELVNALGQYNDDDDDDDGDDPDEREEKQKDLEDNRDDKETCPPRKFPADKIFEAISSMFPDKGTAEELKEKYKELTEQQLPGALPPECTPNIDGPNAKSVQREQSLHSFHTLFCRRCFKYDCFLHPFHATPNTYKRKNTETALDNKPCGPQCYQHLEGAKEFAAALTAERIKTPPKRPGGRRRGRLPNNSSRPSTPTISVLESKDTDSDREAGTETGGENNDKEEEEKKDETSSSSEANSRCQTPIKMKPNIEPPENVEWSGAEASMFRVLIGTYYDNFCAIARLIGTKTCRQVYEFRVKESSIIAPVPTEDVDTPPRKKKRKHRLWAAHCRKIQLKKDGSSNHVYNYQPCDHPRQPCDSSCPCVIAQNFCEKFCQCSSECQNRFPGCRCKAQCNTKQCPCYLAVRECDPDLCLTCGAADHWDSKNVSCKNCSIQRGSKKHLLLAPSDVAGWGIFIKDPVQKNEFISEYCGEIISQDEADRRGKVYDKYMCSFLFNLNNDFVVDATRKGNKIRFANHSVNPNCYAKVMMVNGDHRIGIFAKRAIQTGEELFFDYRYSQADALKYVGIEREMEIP

How the values were obtained:
Type in all cases: cell-based
[1] = biological target: Histone-lysine N-methyltransferase EZH2 (Mus musculus) (UniProt Q61188); assay: Inhibition of EZH2 in mouse B16-F1 migrating cells assessed as fold change in H3K27me3-dependent regulated Hrct1-mRNA expression at 3 uM measured by ChIP-seq analysis relative to control cells
[2] = biological target: Histone-lysine N-methyltransferase EZH2 (Mus musculus) (UniProt Q61188); assay: Inhibition of EZH2 in mouse B16-F1 migrating cells assessed as fold change in H3K27me3-buffered regulated B3galt5-mRNA expression at 3 uM measured by ChIP-seq analysis relative to control cells
[3] = biological target: Histone-lysine N-methyltransferase EZH2 (Mus musculus) (UniProt Q61188); assay: Inhibition of EZH2 in mouse B16-F1 migrating cells assessed as fold change in H3K27me3-buffered regulated Trappc6a-mRNA expression at 3 uM measured by ChIP-seq analysis relative to control cells
[4] = biological target: Histone-lysine N-methyltransferase EZH2 (Mus musculus) (UniProt Q61188); assay: Inhibition of EZH2 in mouse B16-F1 migrating cells assessed as fold change in H3K27me3-buffered regulated Gtf2h1-mRNA expression at 3 uM measured by ChIP-seq analysis relative to control cells
[5] = biological target: Histone-lysine N-methyltransferase EZH2 (Mus musculus) (UniProt Q61188); assay: Inhibition of EZH2 in mouse B16-F1 migrating cells assessed as fold change in H3K27me3-buffered regulated Lrch3-mRNA expression at 3 uM measured by ChIP-seq analysis relative to control cells
[6] = biological target: Histone-lysine N-methyltransferase EZH2 (Mus musculus) (UniProt Q61188); assay: Inhibition of EZH2 in mouse B16-F1 migrating cells assessed as fold change in H3K27me3-buffered regulated Mb21d1-mRNA expression at 3 uM measured by ChIP-seq analysis relative to control cells
[7] = biological target: Histone-lysine N-methyltransferase EZH2 (Mus musculus) (UniProt Q61188); assay: Inhibition of EZH2 in mouse B16-F1 migrating cells assessed as fold change in H3K27me3-buffered regulated Mplkip-mRNA expression at 3 uM measured by ChIP-seq analysis relative to control cells
[8] = biological target: Histone-lysine N-methyltransferase EZH2 (Mus musculus) (UniProt Q61188); assay: Inhibition of EZH2 in mouse B16-F1 migrating cells assessed as fold change in H3K27me3-buffered regulated Cbx7-mRNA expression at 3 uM measured by ChIP-seq analysis relative to control cells
[9] = biological target: Histone-lysine N-methyltransferase EZH2 (Mus musculus) (UniProt Q61188); assay: Inhibition of EZH2 in mouse B16-F1 migrating cells assessed as fold change in H3K27me3-buffered regulated Col15a1-mRNA expression at 3 uM measured by ChIP-seq analysis relative to control cells
[10] = biological target: T1, RNA polymerase II (Mus musculus) (UniProt P08775+Q8CFI7+P97760+A0A3Q4L2S8+Q80UW8+P61219+P62488+Q923G2+P60898+O08740+Q63871+P62876); assay: Inhibition of RNA polymerase II in mouse B16-F1 migrating cells assessed as fold change in Hes6-RNA stability at 0.1 mM measured by ChIP-seq analysis relative to control cells
[11] = biological target: T1, RNA polymerase II (Mus musculus); assay: Inhibition of RNA polymerase II in mouse B16-F1 migrating cells assessed as fold change in Rnf181-RNA stability at 0.1 mM measured by ChIP-seq analysis relative to control cells
[12] = biological target: T1, RNA polymerase II (Mus musculus); assay: Inhibition of RNA polymerase II in mouse B16-F1 migrating cells assessed as fold change in Nr1h2-RNA stability at 0.1 mM measured by ChIP-seq analysis relative to control cells
[13] = biological target: T1, RNA polymerase II (Mus musculus); assay: Inhibition of RNA polymerase II in mouse B16-F1 migrating cells assessed as fold change in Bcas3-RNA stability at 0.1 mM measured by ChIP-seq analysis relative to control cells
[14] = biological target: T1, RNA polymerase II (Mus musculus); assay: Inhibition of RNA polymerase II in mouse B16-F1 migrating cells assessed as fold change in Ephx1-RNA stability at 0.1 mM measured by ChIP-seq analysis relative to control cells
[15] = biological target: T1, RNA polymerase II (Mus musculus); assay: Inhibition of RNA polymerase II in mouse B16-F1 migrating cells assessed as fold change in Mrpl51-RNA stability at 0.1 mM measured by ChIP-seq analysis relative to control cells
[16] = biological target: T1, RNA polymerase II (Mus musculus); assay: Inhibition of RNA polymerase II in mouse B16-F1 migrating cells assessed as fold change in Renbp-RNA stability at 0.1 mM measured by ChIP-seq analysis relative to control cells
[17] = biological target: T1, RNA polymerase II (Mus musculus); assay: Inhibition of RNA polymerase II in mouse B16-F1 migrating cells assessed as fold change in Tax1bp3-RNA stability at 0.1 mM measured by ChIP-seq analysis relative to control cells
[18] = biological target: T1, RNA polymerase II (Mus musculus); assay: Inhibition of RNA polymerase II in mouse B16-F1 migrating cells assessed as fold change in Plpp2-RNA stability at 0.1 mM measured by ChIP-seq analysis relative to control cells
[19] = biological target: T1, RNA polymerase II (Mus musculus); assay: Inhibition of RNA polymerase II in mouse B16-F1 migrating cells assessed as fold change in Cggbp1-RNA stability at 0.1 mM measured by ChIP-seq analysis relative to control cells
[20] = biological target: T1, RNA polymerase II (Mus musculus); assay: Inhibition of RNA polymerase II in mouse B16-F1 migrating cells assessed as fold change in Tm9sf3-RNA stability at 0.1 mM measured by ChIP-seq analysis relative to control cells
[21] = biological target: T1, RNA polymerase II (Mus musculus); assay: Inhibition of RNA polymerase II in mouse B16-F1 migrating cells assessed as fold change in Impad1-RNA stability at 0.1 mM measured by ChIP-seq analysis relative to control cells
[22] = biological target: T1, RNA polymerase II (Mus musculus); assay: Inhibition of RNA polymerase II in mouse B16-F1 migrating cells assessed as fold change in Rapgef2-RNA stability at 0.1 mM measured by ChIP-seq analysis relative to control cells
[23] = biological target: T1, RNA polymerase II (Mus musculus); assay: Inhibition of RNA polymerase II in mouse B16-F1 migrating cells assessed as fold change in Fam60a-RNA stability at 0.1 mM measured by ChIP-seq analysis relative to control cells
[24] = biological target: T1, RNA polymerase II (Mus musculus); assay: Inhibition of RNA polymerase II in mouse B16-F1 migrating cells assessed as fold change in Mtdh-RNA stability at 0.1 mM measured by ChIP-seq analysis relative to control cells
[25] = biological target: T1, RNA polymerase II (Mus musculus); assay: Inhibition of RNA polymerase II in mouse B16-F1 migrating cells assessed as fold change in Sp3-RNA stability at 0.1 mM measured by ChIP-seq analysis relative to control cells
[26] = biological target: T1, RNA polymerase II (Mus musculus); assay: Inhibition of RNA polymerase II in mouse B16-F1 migrating cells assessed as fold change in Pik3c2a-RNA stability at 0.1 mM measured by ChIP-seq analysis relative to control cells
[27] = biological target: T1, RNA polymerase II (Mus musculus); assay: Inhibition of RNA polymerase II in mouse B16-F1 migrating cells assessed as fold change in Npat-RNA stability at 0.1 mM measured by ChIP-seq analysis relative to control cells
[28] = biological target: T1, RNA polymerase II (Mus musculus); assay: Inhibition of RNA polymerase II in mouse B16-F1 migrating cells assessed as fold change in Cntn1-RNA stability at 0.1 mM measured by ChIP-seq analysis relative to control cells
[29] = biological target: T1, RNA polymerase II (Mus musculus); assay: Inhibition of RNA polymerase II in mouse B16-F1 migrating cells assessed as fold change in Rp2-RNA stability at 0.1 mM measured by ChIP-seq analysis relative to control cells
[30] = biological target: T1, RNA polymerase II (Mus musculus); assay: Inhibition of RNA polymerase II in mouse B16-F1 migrating cells assessed as fold change in Med18-RNA stability at 0.1 mM measured by ChIP-seq analysis relative to control cells

Structure (SMILES): CCCc1cc(C)[nH]c(=O)c1CNC(=O)c1cc(-c2ccnc(N3CCN(C)CC3)c2)cc2c1cnn2C(C)C
- log2FC [1]: 0.34
- log2FC [2]: 0.51
- log2FC [3]: 0.45
- log2FC [4]: -0.38
- log2FC [5]: -0.39
- log2FC [6]: -0.47
- log2FC [7]: -0.5
- log2FC [8]: -0.56
- log2FC [9]: -0.8

Structure (SMILES): OC[C@H]1O[C@@H](n2cnc3cc(Cl)c(Cl)cc32)[C@H](O)[C@@H]1O
- log2FC [10]: 0.56
- log2FC [11]: 0.5
- log2FC [12]: 0.48
- log2FC [13]: 0.46
- log2FC [14]: 0.45
- log2FC [15]: 0.42
- log2FC [16]: 0.42
- log2FC [17]: 0.42
- log2FC [18]: 0.39
- log2FC [19]: -0.41
- log2FC [20]: -0.52
- log2FC [21]: -0.54
- log2FC [22]: -0.63
- log2FC [23]: -0.71
- log2FC [24]: -0.75
- log2FC [25]: -0.77
- log2FC [26]: -0.82
- log2FC [27]: -0.83
- log2FC [28]: -0.86
- log2FC [29]: -0.96
- log2FC [30]: -1.78
